Test: Cooling intensity: panelists taste aqueous solutions, compared with menthol at 2 ppm
Assay type: in vivo, human
Details: aqueous solution at the concentration listed in Table 1
For `COc1cc(COC(c2ccccc2)c2ccccc2)ccc1O` [Example 4, 4-((benzhydryloxy)methyl)-2-methoxyphenol], the Odor was “None”. With `CCNC(=O)C1CC(C)CCC1C(C)C` (stereo not shown) [N-ethyl p-menthanecarboxamide (WS-3), N-ethyl p-menthanecarboxamide, reference compound] the Odor was “None”. For `CC1CCC(C(C)C)C(O)C1` (stereo not shown) [I-Menthol, reference compound], the Odor was “Minty”. For `COc1cc(CNC(c2ccccc2)c2ccccc2)ccc1O` [Example 1, 4-((benzhydrylamino)methyl)-2-methoxyphenol], the Odor was “None”.

Source: patent US20090035364A1, “PARA-SUBSTITUTED 2-ALKOXYPHENOL COMPOUNDS” (priority 2006, published 2009)
